The subject of this data set is Xenopus oocytes. Description: Oocyte surface protein assay: chemiluminescent detection of HA epitope. Particulars: HA-tagged fusion proteins. It counts as cell-based, Xenopus laevis.

In the case of “MRP1-Kir6.2: fusion of human MRP1 C-terminus to mouse Kir6.2 N-terminus with hexaglycine spacer”, the “Surface density of fusion protein, fold lower than SUR1-Kir6.2” value was determined as 5 fold and the “Surface density of fusion protein, fold lower than SUR2A-Kir6.2” value is reported as 4 fold.

Source of the values: US20050063989A1, “Ion channel hybrid proteins as electrical sensors and use thereof” (COMMISSARIAT A L'ENERGIE ATOMIQUE, priority 2003, published 2005).
